Measurements from patent US5162305 (dated 1992).
Non-standard residues stand in square brackets, D forms with d. *: point of attachment. Tos = Cc1ccc(S(=O)(=O)*)cc1; ClZ = O=C(OCc1ccccc1Cl)*; Abu = CC[C@H](N)C(=O)O; Cbz = O=C(OCc1ccccc1)*; Boc = CC(C)(C)OC(=O)*; OcHex = C1CCC(O*)CC1; OBn = c1ccc(CO*)cc1; Bn = c1ccc(C*)cc1; NHNH2 = NN*

Assay: general procedure: solution-phase peptide synthesis; azide method (isoamyl nitrite/HCl-dioxane); OSu active esters; TFA-ONp (p-nitrop)
Settings: coupling step

| Substance | step yield [%] |
| --- | --- |
| Boc-[Abu]S(Bn)NL-OEt | 84.0 |
| Boc-Asn-Leu-Ser(Bzl)-Thr(Bzl)-Lys(COCH2 CH2 COOH)--OCH3 | 71.4 |
| Boc-Lys(Z)-Leu-Ser(Bzl)-Gln-Glu(OcHex)-Leu-His(Tos)-Lys(Cl-Z)-Leu-Gln-Thr(Bzl)-D-Tyr(Cl2 -Bzl)-Pro-Arg(Tos)-Thr(Bzl)-Asp(OcHex)-Val-Gly-Ala-Gly-Thr(Bzl)-Pro--NH2 | 94.4 |
| Boc-K(Cbz)LS(Bn)QE(OBn)LHK(ClZ)LQT(Bn)PGT(Bn)D(OcHex)VGAGT(Bn)P-NH2 | 76.6 |
| Boc-ALS(Bn)QE(OcHex)LNNLQT(Bn)PQT(Bn)D(OcHex)VGAGT(Bn)P-NH2 | 80.8 |
| Boc-NK(ClZ)LQT(Bn)PR(Tos)T(Bn)D(OcHex)VGAGT(Bn)P-NH2 | 94.3 |
| Boc-NK(ClZ)LQT(Bn)PQT(Bn)D(OcHex)VGAGT(Bn)P-NH2 | 81.5 |
| Boc-Gln-Thr(Bzl)-Tyr(Cl2 -Bzl)-Pro-Gln-Thr(Bzl)-Asp(OcHex)-Val-Gly-Ala-Gly-Thr(Bzl)-Pro--NH2 | 90.8 |
| Boc-[Abu]S(Bn)NLS(Bn)T(Bn)D-OEt | 55.3 |
| Boc-Gln-Glu(OcHex)-Leu-Lys(Cl-Z)-Leu-Gln-Thr(Bzl)-Tyr(Cl2-Bzl)-Pro-Gln-Thr(Bzl)-Asp(OcHex)-Val-Gly-Ala-Gly-Thr(Bzl)-Pro--NH2 | 95.4 |
| Boc-Lys(Z)-Leu-Ser(Bzl)-Gln-Glu(OcHex)-Leu-Gly-Lys(Cl-Z)-Leu-Gln-Thr(Bzl)-Tyr(Cl2-Bzl)-Pro-Gln-Thr(Bzl)-Asp(OcHex)-Val-Gly-Ala-Gly-Thr(Bzl)-Pro--NH2 | 97.5 |
| Boc-Thr(Bzl)-Leu-Pro-Gln-Thr(Bzl)-Asp(OcHex)-Val-Gly-Ala-Gly-Thr(Bzl)-Pro- -NH2 | 85.0 |
| Boc-Gln-Glu(OcHex)-Leu-Gly-Lys(Cl-Z)-Leu-Gln-Thr(Bzl)-Tyr(Cl-Bzl)-Pro-Gln-Thr(Bzl)-Asp(OcHex)-Val-Gly-Ala-Gly-Thr(Bzl)-Pro--NH2 | 89.3 |
| Boc-K(Cbz)LS(Bn)QE(OcHex)LK(ClZ)LQT(Bn)PR(Tos)T(Bn)D(OcHex)VGAGT(Bn)P-NH2 | 90.2 |
| Boc-K(ClZ)LS(Bn)QE(OcHex)LNK(ClZ)LQT(Bn)PR(Tos)T(Bn)D(OcHex)VGAGT(Bn)P-NH2 | 90.0 |
| Boc-K(Cbz)LS(Bn)QE(OcHex)LHLQT(Bn)PT(Bn)D(OcHex)VGAGT(Bn)P-NH2 | 94.9 |
| Boc-K(Cbz)LS(Bn)QE(OcHex)LGK(ClZ)LGT(Bn)Y(Bn)PR(Tos)T(Bn)D(OBn)VGAGT(Bn)P-NH2 | 95.2 |
| Boc-Gln-Glu(OcHex)-Leu-His(Tos)-Lys(Cl-Z)-Leu-Gln-Thr(Bzl)-Pro-Asn-Thr(Bzl)-Asp(OcHex)-Val-Gly-Ala-Gly-Thr(Bzl)-Pro--NH2 | 86.9 |
| Boc-K(ClZ)LQT(Bn)PR(Tos)T(Bn)D(OEt)VGAGT(Bn)P-NH2 | 96.9 |
| Boc-Acp-Asn-Leu-Ser(Bzl)-Thr(Bzl)-Asp--OEt | 78.5 |
| Boc-K(ClZ)LQT(Bn)PR(Tos)T(Bn)D(OcHex)VGAGT(Bn)P-NH2 | 95.7 |
| Boc-T(Bn)PT(Bn)D(OBn)VGAGT(Bn)P-NH2 | 93.9 |
| Boc-FK(ClZ)LQT(Bn)PR(Tos)T(Bn)D(OcHex)VGAGT(Bn)P-NH2 | 97.2 |
| Boc Gly-Ser(Bzl)-Asn-Leu-Ser(Bzl)-Thr(Bzl)-Asp--OEt | 83.1 |

| Substance | step yield [%] |
| --- | --- |
| Boc-Tyr(Cl2 -Bzl)-Lys(Cl-Z)-Leu-Gln-Thr(Bzl)-Pro-Gln-Thr(Bzl)-Asp(OcHex)-Val-Gly-Ala-Gly-Thr(Bzl)-Pro--NH2 | 88.9 |
| Boc-K(Cbz)LS(Bn)QE(OcHex)LNK(ClZ)LQT(Bn)Y(Bn)PR(Tos)T(Bn)D(OBn)VGAGT(Bn)P-NH2 | 95.3 |
| Boc-K(Cbz)LS(Bn)QE(OcHex)LD(OcHex)K(ClZ)LQT(Bn)PR(Tos)T(Bn)D(OcHex)VGAGT(Bn)P-NH2 | 89.8 |
| Boc-NT(Bn)D(OcHex)VGAGT(Bn)P-NH2 | 92.0 |
| Boc-QE(OcHex)LD(OcHex)K(ClZ)LQT(Bn)PQT(Bn)D(OcHex)VGAGT(Bn)P-NH2 | 97.9 |
| Boc-LHK(ClZ)QT(Bn)PQT(Bn)D(OBn)VGAGT(Bn)P-NH2 | 89.1 |
| Boc-Lys(Z)-Leu-Ser(Bzl)-Gln-Glu(OcHex)-Leu-Asn-Lys(Cl-Z)-Leu-Gln-Thr(Bzl)-Tyr(Cl2-Bzl)-Pro-Gln-Thr(Bzl)-Asp(OcHex)-Val-Gly-Ala-Gly-Thr(Bzl)-Pro--NH2 | 95.9 |
| Boc-K(Cbz)LS(Bn)QE(OBn)LHK(ClZ)LQT(Bn)LPR(Tos)T(Bn)D(OcHex)VGAGT(Bn)P-NH2 | 89.6 |
| Boc-QE(OcHex)LNK(ClZ)LQT(Bn)Y(Bn)PR(Tos)T(Bn)D(OBn)VGAGT(Bn)P-NH2 | 96.4 |
| Boc-E(OcHex)LHK(ClZ)LQT(Bn)PQT(Bn)D(OBn)VGAGT(Bn)P-NH2 | 95.9 |
| Boc-GK(ClZ)LQT(Bn)Y(Bn)PR(Tos)T(Bn)D(OBn)VGAGT(Bn)P-NH2 | 94.6 |
| Boc-T(Bn)LPR(Tos)T(Bn)D(OcHex)VGAGT(Bn)P-NH2 | 84.9 |
| Boc-NLQT(Bn)PQT(Bn)D(OcHex)VGAGT(Bn)P-NH2 | 71.1 |
| Boc-GK(ClZ)LQT(Bn)PR(Tos)T(Bn)D(OcHex)VGAGT(Bn)P-NH2 | 92.0 |
| Boc-Gln-Glu(OcHex)-Leu-His-Lys(cl-Z)-Gln-Thr(Bzl)-Pro-Gln-Thr(Bzl)-Asp(OBzl)-Val Gly-Ala-Gly-Thr(Bzl)-Pro--NH2 | 90.9 |
| Boc-His(Tos)-Lys(Cl-Z)-Gln-Thr(Bzl)-Tyr(Cl2 -Bzl)-Pro-Arg(Tos)-Thr(Bzl)-Asp(OBzl)-Val-Gly-Ala-Gly-Thr(Bzl)-Pro--NH2 | 93.6 |
| Boc-Gly-Leu-Ser(Bzl)-Gln-Glu(OcHex)-Leu-His(Tos)-Lys(Cl-Z)-Leu-Gln-Thr(Bzl)-Pro-Arg(Tos)-Thr(Bzl)-Asp(OcHex)-Val-Gly-Ala-Gly-Thr(Bzl)-Pro--NH2 | 96.8 |
| Boc-Lys(Z)-Leu-Ser(Bzl)-Gln-Glu(OcHex)-Leu-Tyr(Cl2-Bzl)-Lys(Cl-Z)-Leu-Gln-Thr(Bzl)-Pro-Gln-Thr(Bzl)-Asp(OcHex)-Val-Gly-Ala-Gly-Thr(Bzl)-Pro--NH2 | 91.4 |
| Boc-Gln-Glu(OcHex)-Leu-His(Tos)-Lys(Cl-Z)-Leu-Gln-Thr(Bzl)-Pro-Arg(Tos)-Thr(Bzl)-Asp(OEt)-Val-Gly-Ala-Gly-Thr(Bzl)-Pro--NH2 | 94.1 |
| Boc-ALS(Bn)QE(OcHex)LGK(ClZ)LQT(Bn)PQT(Bn)D(OcHex)VGAGT(Bn)P-NH2 | 96.1 |
| Boc-K(ClZ)LQT(Bn)PT(Bn)D(OBn)VGAGT(Bn)P-NH2 | 98.7 |
| Boc-LHK(ClZ)LQT(Bn)PR(Tos)T(Bn)D(OEt)VGAGT(Bn)P-NH2 | 90.8 |
| Boc-K(ClZ)QT(Bn)PR(Tos)T(Bn)D(OcHex)VGAGT(Bn)P-NH2 | 93.0 |
| Boc-K(Cbz)LS(Bn)QE(OcHex)LQK(ClZ)LQT(Bn)PR(Tos)T(Bn)D(OcHex)VGAGT(Bn)P-NH2 | 95.6 |

| Substance | step yield [%] |
| --- | --- |
| Boc-QE(OcHex)LHLQT(Bn)PT(Bn)D(OcHex)VGAGT(Bn)P-NH2 | 90.5 |
| Boc-Ser(Bzl)-Asn-Leu-Ser(Bzl)-Thr(Bzl)-Tyr(CH2 COOH)--OCH3 | 63.8 |
| Boc-QE(OcHex)LK(ClZ)LQT(Bn)Y(Bn)PR(Tos)T(Bn)D(OBn)VGAGT(Bn)P-NH2 | 97.8 |
| Boc-K(ClZ)LS(Bn)QE(OcHex)LNK(ClZ)LQT(Bn)LPQT(Bn)D(OcHex)VGAGT(Bn)P-NH2 | 89.3 |
| Boc-Ser Bzl -Gln-Glu(OcHex)-Leu-Asn-Lys(Cl-Z)-Leu-Gln-Thr(Bzl)-Leu-Pro-Gln-Thr(Bzl)-Asp(OcHex)-Val-Gly-Ala-Gly-Thr(Bzl)-Pro--NH2 | 94.7 |
| Boc-Gln-Glu(OBzl)-Leu-His-Lys(Bz)-Leu-Gln-Thr(Bzl)-Tyr(Bzl)-Pro-Arg(Tos)-Thr(Bzl)-Asp(OBzl)-Val-Gly-Ala-Gly-Thr(Bzl)-Pro--NH2 | 90.9 |
| Boc-LHGLQT(Bn)PR(Tos)T(Bn)D(OcHex)VGAGT(Bn)P-NH2 | 98.1 |
| Boc-QT(Bn)LPQT(Bn)D(OcHex)VGAGT(Bn)P-NH2 | 77.9 |
| Boc-T(Bn)PR(Tos)T(Bn)D(OcHex)VGAGT(Bn)P-NH2 | 82.8 |
| Boc-QT(Bn)D(OBn)VGAGT(Bn)P-NH2 | 87.9 |
| Boc-QE(OcHex)LNK(ClZ)LQT(Bn)PQT(Bn)D(OcHex)VGAGT(Bn)P-NH2 | 96.6 |
| Boc-Gln-Glu(OcHex)-Leu-His(Tos)-Lys(Cl-Z)-Gln-Thr(Bzl)-Tyr(Cl2 -Bzl)-Pro-Arg(Tos)-Thr(Bzl)-Asp(OBzl)-Val-Gly-Ala-Gly-Thr(Bzl)-Pro--NH2 | 92.3 |
| Boc-D(OcHex)VGAGT(Bn)P-NH2 | 83.0 |
| Boc-QT(Bn)PQT(Bn)D(OcHex)VGAGT(Bn)P-NH2 | 78.0 |
| Boc-K(Cbz)LS(Bn)QE(OcHex)LGK(ClZ)LQT(Bn)PQT(Bn)D(OcHex)VGAGT(Bn)P-NH2 | 82.5 |
| Boc-QE(OcHex)LFK(ClZ)LQT(Bn)PR(Tos)T(Bn)D(OcHex)VGAGT(Bn)P-NH2 | 92.6 |
| Boc-Glu(OBzl)-Leu-His-Lys(Bz)-Leu-Gln-Thr-(Bzl)-Tyr(Bzl)-Pro-Arg(Tos)-Thr(Bzl)-Asp-(OBzl)-Val-Gly-Ala-Gly-Thr(Bzl)-Pro--NH2 | 75.1 |
| Boc-QE(OBn)LHK(ClZ)LQT(Bn)LPR(Tos)T(Bn)D(OcHex)VGAGT(Bn)P-NH2 | 71.3 |
| Boc-QT(Bn)PR(Tos)T(Bn)D(OcHex)VGAGT(Bn)P-NH2 | 96.5 |
| Boc-Lys(Cl-Bz)-Leu-Ser(Bzl)-Gln-Glu(OBzl)-Leu-His-Lys(Cl-Z)-Leu-Gln-Thr(Bzl)-Tyr(Bzl)-Pro-Arg(Tos)-Thr(Bzl)-Asp(OBzl)-Val-Gly-Ala-Gly-Thr(Bzl)-Pro--NH2 | 58.3 |
| Boc-NK(ClZ)LQT(Bn)Y(Bn)PR(Tos)T(Bn)D(OBn)VGAGT(Bn)P-NH2 | 94.1 |
| Boc-Lys(Z)-Leu-Ser(Bzl)-Gln-Glu(OcHex)-Leu-His(Tos)-Lys(Cl-Z)-Leu-Gln-Thr(Bzl)-Pro-Asn-Thr(Bzl)-Asp(OcHex)-Val-Gly-Ala-Gly-Thr(Bzl)-Pro--NH2 | 63.5 |

Same assay, conditions: late stage modification step

| Substance | step yield [%] |
| --- | --- |
| Boc-GS(Bn)NL-NHNH2 | 79.0 |
| β-Ala-Ser(Bzl)-Asn-Leu-Ser(Bzl)-Thr(Bzl)-Glu--N2 H3 | 100 |
| Boc-8-Ala-Ser(Bzl)-Asn-Leu--N2 H3 | 58.7 |
